Source: paper PMC8390553
No constants are given. Whether binding was seen depends on the method and setting. Binding seen in cells or lysates may run through a third protein. Some entries that bind do so weakly or less than the wild type.

Chains of the proteins cited; added tags and fusions are not shown. Lines headed by an entry give the natural chain unless they say otherwise; changes in a name come on top.
UniProt Q2NKJ3: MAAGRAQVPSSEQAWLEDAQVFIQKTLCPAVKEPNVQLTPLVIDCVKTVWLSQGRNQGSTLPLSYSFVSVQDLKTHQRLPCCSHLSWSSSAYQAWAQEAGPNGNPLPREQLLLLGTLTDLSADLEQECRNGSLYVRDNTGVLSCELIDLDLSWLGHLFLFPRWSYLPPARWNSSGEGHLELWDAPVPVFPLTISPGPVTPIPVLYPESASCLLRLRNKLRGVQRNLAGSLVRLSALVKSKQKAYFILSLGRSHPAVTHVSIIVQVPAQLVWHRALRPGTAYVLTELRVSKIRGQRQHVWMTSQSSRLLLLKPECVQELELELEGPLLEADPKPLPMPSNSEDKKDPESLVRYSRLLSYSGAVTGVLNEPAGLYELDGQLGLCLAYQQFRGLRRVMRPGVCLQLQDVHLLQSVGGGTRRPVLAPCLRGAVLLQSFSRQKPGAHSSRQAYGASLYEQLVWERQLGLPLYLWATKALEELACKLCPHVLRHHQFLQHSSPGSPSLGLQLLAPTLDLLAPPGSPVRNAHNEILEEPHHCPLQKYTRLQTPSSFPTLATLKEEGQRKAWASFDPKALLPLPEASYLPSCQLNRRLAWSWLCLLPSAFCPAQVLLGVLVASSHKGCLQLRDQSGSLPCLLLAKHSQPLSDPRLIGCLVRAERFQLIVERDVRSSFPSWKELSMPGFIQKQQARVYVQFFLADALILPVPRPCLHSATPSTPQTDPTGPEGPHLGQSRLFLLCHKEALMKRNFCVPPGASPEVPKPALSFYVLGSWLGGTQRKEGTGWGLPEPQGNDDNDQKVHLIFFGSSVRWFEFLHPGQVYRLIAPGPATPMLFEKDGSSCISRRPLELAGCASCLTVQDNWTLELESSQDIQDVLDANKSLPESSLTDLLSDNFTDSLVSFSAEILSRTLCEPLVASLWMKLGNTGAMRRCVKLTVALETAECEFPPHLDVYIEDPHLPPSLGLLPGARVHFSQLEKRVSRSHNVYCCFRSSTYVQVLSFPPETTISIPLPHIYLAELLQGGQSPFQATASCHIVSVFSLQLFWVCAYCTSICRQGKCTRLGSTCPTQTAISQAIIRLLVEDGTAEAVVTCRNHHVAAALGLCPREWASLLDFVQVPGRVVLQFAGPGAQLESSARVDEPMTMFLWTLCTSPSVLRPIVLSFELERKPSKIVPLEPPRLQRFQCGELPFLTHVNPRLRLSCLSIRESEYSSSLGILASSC
UniProt Q9H668: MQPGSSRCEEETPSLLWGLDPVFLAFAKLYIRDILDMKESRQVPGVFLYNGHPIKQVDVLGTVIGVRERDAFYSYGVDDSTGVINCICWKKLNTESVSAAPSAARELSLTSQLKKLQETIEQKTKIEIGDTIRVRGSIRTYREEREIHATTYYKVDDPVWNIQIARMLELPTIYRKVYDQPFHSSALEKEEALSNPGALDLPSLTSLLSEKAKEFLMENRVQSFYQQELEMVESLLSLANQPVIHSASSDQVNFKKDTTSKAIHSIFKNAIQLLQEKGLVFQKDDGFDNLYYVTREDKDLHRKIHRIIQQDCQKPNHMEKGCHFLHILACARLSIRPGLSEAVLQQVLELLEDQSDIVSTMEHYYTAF
UniProt Q86WV5: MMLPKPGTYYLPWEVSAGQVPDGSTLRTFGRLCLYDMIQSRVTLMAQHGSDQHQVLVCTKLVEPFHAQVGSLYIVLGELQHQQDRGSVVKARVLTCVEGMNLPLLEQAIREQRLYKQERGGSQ

Target: CTC1-STN1-TEN1 (CST) complex, epitope-tagged, overexpressed (human) (UniProt Q2NKJ3+Q9H668+Q86WV5)
Test: co-IP; IP of Flag-tagged proteins from nuclease-treated lysates of HEK293T cells expressing Flag-CTC1, Flag-STN1 or the full CST complex; blots for endogenous SMC3 and SMC1A

binding: binds
B1: SMC1A, endogenous (HEK293T) (protein, UniProt Q14683 1-1233)
chain: MGFLKLIEIENFKSYKGRQIIGPFQRFTAIIGPNGSGKSNLMDAISFVLGEKTSNLRVKTLRDLIHGAPVGKPAANRAFVSMVYSEEGAEDRTFARVIVGGSSEYKINNKVVQLHEYSEELEKLGILIKARNFLVFQGAVESIAMKNPKERTALFEEISRSGELAQEYDKRKKEMVKAEEDTQFNYHRKKNIAAERKEAKQEKEEADRYQRLKDEVVRAQVQLQLFKLYHNEVEIEKLNKELASKNKEIEKDKKRMDKVEDELKEKKKELGKMMREQQQIEKEIKEKDSELNQKRPQYIKAKENTSHKIKKLEAAKKSLQNAQKHYKKRKGDMDELEKEMLSVEKARQEFEERMEEESQSQGRDLTLEENQVKKYHRLKEEASKRAATLAQELEKFNRDQKADQDRLDLEERKKVETEAKIKQKLREIEENQKRIEKLEEYITTSKQSLEEQKKLEGELTEEVEMAKRRIDEINKELNQVMEQLGDARIDRQESSRQQRKAEIMESIKRLYPGSVYGRLIDLCQPTQKKYQIAVTKVLGKNMDAIIVDSEKTGRDCIQYIKEQRGEPETFLPLDYLEVKPTDEKLRELKGAKLVIDVIRYEPPHIKKALQYACGNALVCDNVEDARRIAFGGHQRHKTVALDGTLFQKSGVISGGASDLKAKARRWDEKAVDKLKEKKERLTEELKEQMKAKRKEAELRQVQSQAHGLQMRLKYSQSDLEQTKTRHLALNLQEKSKLESELANFGPRINDIKRIIQSREREMKDLKEKMNQVEDEVFEEFCREIGVRNIREFEEEKVKRQNEIAKKRLEFENQKTRLGIQLDFEKNQLKEDQDKVHMWEQTVKKDENEIEKLKKEEQRHMKIIDETMAQLQDLKNQHLAKKSEVNDKNHEMEEIRKKLGGANKEMTHLQKEVTAIETKLEQKRSDRHNLLQACKMQDIKLPLSKGTMDDISQEEGSSQGEDSVSGSQRISSIYAREALIEIDYGDLCEDLKDAQAEEEIKQEMNTLQQKLNEQQSVLQRIAAPNMKAMEKLESVRDKFQETSDEFEAARKRAKKAKQAFEQIKKERFDRFNACFESVATNIDEIYKALSRNSSAQAFLGPENPEEPYLDGINYNCVAPGKRFRPMDNLSGGEKTVAALALLFAIHSYKPAPFFVLDEIDAALDNTNIGKVANYIKEQSTCNFQAIVISLKEEFYTKAESLIGVYPEQGDCVISKVLTFDLTKYPDANPNPNEQ
